# Measurements taken from patent US20190307908A1, “NANOEMULSION AGENTS FOR ULTRASOUND DIAGNOSTIC AND THERAPY” (University of Washington, priority 2018, published 2019).
# Assay: acoustic activation (cavitation) threshold, passive cavitation detection
# Assay type: physicochemical
# Details: ouzo droplets; 15-cycle pulses, 1.24 MHz focused transducer, degassed water bath 37° C.
row,SMILES,50% activation (cavitation) threshold [MPa]
1,FC(F)(F)C(F)(F)C(F)(F)C(F)(F)C(F)(F)C(F)(F)F [perfluorohexane],6.86
2,FC(F)(F)C(F)(F)C(F)(F)C(F)(F)C(F)(F)F [perfluoropentane],5.11
3,FC(F)(F)C(F)(F)C(F)(F)F [perfluoropropane],1.74
4,FC(F)(F)C(F)(F)C(F)(F)C(F)(F)F [perfluorobutane],3.49
